{"source": "PubChem BioAssay AID652243 | Drosophila RNAi Screening Center, 2013", "assay": "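Fly regulators of androgen-dependent reporter output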 (primary screen)", "cells": "Drosophila S2R+ cells", "reagent": "long dsRNA against Drosophila genes", "duration": "72 h (48 h, then 24 h hormone)", "conditions": "synthetic androgen R1881 at 10 nM for 24 h", "read-out": "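Firefly light from an androgen-responsive reporter and Renilla control light per well, raw and unnormalised, for each of two replicates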", "direction": "firefly reporter light: higher = more light from androgen-responsive reporter; Renilla control light: higher = more constitutive control signal (cell number, transfection)", "rule for the call": "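Across duplicate plates, a knock-down whose log firefly/Renilla ratio shifted a set fold down or up from the GFP/LacZ control mean was a hit; the downward cut appears as both 1.5 and 3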", "calls": "active = hit: reporter lowered or raised; inactive = no hit", "note": "The deposit covers about 24,000 reagents; below is a random part of those that have a named target and a result. Over the whole deposit, 246 (1%) got an active call. 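Plates not normalised; calls are printed but the firefly/Renilla ratio behind them is not deposited; fold cut for lowering reported inconsistently.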 The raw values are shown without normalisation. The record does not give: the amount of reagent."}
{"gene": "Idua (alpha-L-iduronidase)", "PubChem SID": "SID104182733", "firefly reporter light, replicate 1": 1.14e6, "firefly reporter light, replicate 2": 6.38e5, "Renilla control light, replicate 1": 1.77e6, "Renilla control light, replicate 2": 1.35e6, "activity call": "inactive"}
{"gene": "CG13984", "PubChem SID": "SID104182108", "firefly reporter light, replicate 1": 2.88e5, "firefly reporter light, replicate 2": 2.26e5, "Renilla control light, replicate 1": 1.67e6, "Renilla control light, replicate 2": 1.13e6, "activity call": "inactive"}
{"gene": "ZnT63C (Zinc transporter 63C)", "PubChem SID": "SID104187824", "firefly reporter light, replicate 1": 1.33e5, "firefly reporter light, replicate 2": 1.71e5, "Renilla control light, replicate 1": 3.03e5, "Renilla control light, replicate 2": 2.93e5, "activity call": "inactive"}
{"gene": "ZnT63C (Zinc transporter 63C)", "PubChem SID": "SID104187825", "firefly reporter light, replicate 1": 1.29e5, "firefly reporter light, replicate 2": 1.40e5, "Renilla control light, replicate 1": 1.67e5, "Renilla control light, replicate 2": 2.11e5, "activity call": "inactive"}
{"gene": "ZnT63C (Zinc transporter 63C)", "PubChem SID": "SID104188311", "firefly reporter light, replicate 1": 4.99e5, "firefly reporter light, replicate 2": 1.35e6, "Renilla control light, replicate 1": 7.55e5, "Renilla control light, replicate 2": 1.78e6, "activity call": "inactive"}
{"gene": "ZnT63C (Zinc transporter 63C)", "PubChem SID": "SID104201590", "firefly reporter light, replicate 1": 1.16e5, "firefly reporter light, replicate 2": 1.04e5, "Renilla control light, replicate 1": 7.45e5, "Renilla control light, replicate 2": 6.28e5, "activity call": "active"}
{"gene": "ZnT63C (Zinc transporter 63C)", "PubChem SID": "SID104202779", "firefly reporter light, replicate 1": 7.56e5, "firefly reporter light, replicate 2": 8.78e5, "Renilla control light, replicate 1": 8.47e5, "Renilla control light, replicate 2": 8.85e5, "activity call": "inactive"}
{"gene": "Alp11 (Alkaline phosphatase 11)", "PubChem SID": "SID104199872", "firefly reporter light, replicate 1": 3.37e5, "firefly reporter light, replicate 2": 2.48e5, "Renilla control light, replicate 1": 4.24e6, "Renilla control light, replicate 2": 4.18e6, "activity call": "inactive"}
{"gene": "Alp11 (Alkaline phosphatase 11)", "PubChem SID": "SID104214392", "activity call": "inactive"}
{"gene": "eIF5 (eukaryotic translation initiation factor 5)", "PubChem SID": "SID104199957", "firefly reporter light, replicate 1": 88897, "firefly reporter light, replicate 2": 92964, "Renilla control light, replicate 1": 4.34e5, "Renilla control light, replicate 2": 5.47e5, "activity call": "inactive"}
{"gene": "Vps13B (Vacuolar protein sorting 13B)", "PubChem SID": "SID104194852", "firefly reporter light, replicate 1": 2.44e5, "firefly reporter light, replicate 2": 1.56e5, "Renilla control light, replicate 1": 2.04e6, "Renilla control light, replicate 2": 2.01e6, "activity call": "inactive"}
{"gene": "CG12071", "PubChem SID": "SID104202329", "firefly reporter light, replicate 1": 5.40e5, "firefly reporter light, replicate 2": 7.21e5, "Renilla control light, replicate 1": 1.12e6, "Renilla control light, replicate 2": 1.39e6, "activity call": "inactive"}
{"gene": "Epp (Ecdysteroid phosphate phosphatase)", "PubChem SID": "SID104194399", "firefly reporter light, replicate 1": 1.22e5, "firefly reporter light, replicate 2": 87111, "Renilla control light, replicate 1": 9.37e5, "Renilla control light, replicate 2": 1.00e6, "activity call": "inactive"}
{"gene": "Epp (Ecdysteroid phosphate phosphatase)", "PubChem SID": "SID104207793", "firefly reporter light, replicate 1": 4.72e5, "firefly reporter light, replicate 2": 4.10e5, "Renilla control light, replicate 1": 1.54e6, "Renilla control light, replicate 2": 1.56e6, "activity call": "inactive"}
{"gene": "l(2)k01209 (lethal (2) k01209)", "PubChem SID": "SID104186681", "firefly reporter light, replicate 1": 52834, "firefly reporter light, replicate 2": 93742, "Renilla control light, replicate 1": 1.03e6, "Renilla control light, replicate 2": 1.03e6, "activity call": "inactive"}
{"gene": "l(2)k01209 (lethal (2) k01209)", "PubChem SID": "SID104208217", "firefly reporter light, replicate 1": 8.31e5, "firefly reporter light, replicate 2": 1.06e6, "Renilla control light, replicate 1": 4.88e5, "Renilla control light, replicate 2": 4.88e5, "activity call": "active"}
{"gene": "l(2)k01209 (lethal (2) k01209)", "PubChem SID": "SID104214635", "activity call": "inactive"}
{"gene": "Aven (Apoptosis and caspase activation inhibitor)", "PubChem SID": "SID104199485", "firefly reporter light, replicate 1": 7.61e5, "firefly reporter light, replicate 2": 6.62e5, "Renilla control light, replicate 1": 3.72e6, "Renilla control light, replicate 2": 3.69e6, "activity call": "inactive"}
{"gene": "CG13449", "PubChem SID": "SID104189788", "firefly reporter light, replicate 1": 2.42e5, "firefly reporter light, replicate 2": 1.75e5, "Renilla control light, replicate 1": 2.46e6, "Renilla control light, replicate 2": 1.47e6, "activity call": "inactive"}
{"gene": "CG12011", "PubChem SID": "SID104188011", "firefly reporter light, replicate 1": 1.27e5, "firefly reporter light, replicate 2": 1.63e5, "Renilla control light, replicate 1": 2.62e6, "Renilla control light, replicate 2": 2.28e6, "activity call": "inactive"}
{"gene": "CG12011", "PubChem SID": "SID104205859", "firefly reporter light, replicate 1": 2.27e5, "firefly reporter light, replicate 2": 2.96e5, "Renilla control light, replicate 1": 4.53e5, "Renilla control light, replicate 2": 6.26e5, "activity call": "inactive"}

In a second layout: results already given.
Epp (Ecdysteroid phosphate phosphatase) [SID104207793] — firefly reporter light, replicate 1 = 4.72e5; firefly reporter light, replicate 2 = 4.10e5; Renilla control light, replicate 1 = 1.54e6; Renilla control light, replicate 2 = 1.56e6; activity call = inactive
l(2)k01209 (lethal (2) k01209) [SID104186681] — firefly reporter light, replicate 1 = 52834; firefly reporter light, replicate 2 = 93742; Renilla control light, replicate 1 = 1.03e6; Renilla control light, replicate 2 = 1.03e6; activity call = inactive
l(2)k01209 (lethal (2) k01209) [SID104208217] — firefly reporter light, replicate 1 = 8.31e5; firefly reporter light, replicate 2 = 1.06e6; Renilla control light, replicate 1 = 4.88e5; Renilla control light, replicate 2 = 4.88e5; activity call = active
